Results on 2 substances are retold here after article PMC11801707.

By UniProt entry, the sequences of proteins in these tests, tags left out. Where a name states a change or a piece, a line headed by the entry shows the natural chain unless it says otherwise.
UniProt A5A757: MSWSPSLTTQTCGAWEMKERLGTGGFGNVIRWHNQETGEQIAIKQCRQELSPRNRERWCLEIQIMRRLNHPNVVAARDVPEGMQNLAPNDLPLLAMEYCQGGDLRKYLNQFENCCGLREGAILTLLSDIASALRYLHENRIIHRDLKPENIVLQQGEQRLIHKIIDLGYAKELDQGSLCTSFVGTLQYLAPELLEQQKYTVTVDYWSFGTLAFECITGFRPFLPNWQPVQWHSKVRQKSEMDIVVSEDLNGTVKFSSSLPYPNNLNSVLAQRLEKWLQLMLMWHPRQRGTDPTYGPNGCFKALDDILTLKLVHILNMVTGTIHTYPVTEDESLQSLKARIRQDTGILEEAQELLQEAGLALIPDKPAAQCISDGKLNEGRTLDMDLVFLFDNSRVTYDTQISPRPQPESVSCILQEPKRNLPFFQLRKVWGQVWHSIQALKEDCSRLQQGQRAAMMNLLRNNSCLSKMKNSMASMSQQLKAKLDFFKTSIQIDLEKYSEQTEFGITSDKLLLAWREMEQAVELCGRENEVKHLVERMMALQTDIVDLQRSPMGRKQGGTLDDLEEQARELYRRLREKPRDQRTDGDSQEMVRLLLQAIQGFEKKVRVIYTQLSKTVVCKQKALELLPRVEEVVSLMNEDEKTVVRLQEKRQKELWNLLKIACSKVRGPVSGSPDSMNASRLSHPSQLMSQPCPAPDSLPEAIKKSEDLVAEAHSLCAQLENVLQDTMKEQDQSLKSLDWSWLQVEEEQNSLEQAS
UniProt G9M4L5: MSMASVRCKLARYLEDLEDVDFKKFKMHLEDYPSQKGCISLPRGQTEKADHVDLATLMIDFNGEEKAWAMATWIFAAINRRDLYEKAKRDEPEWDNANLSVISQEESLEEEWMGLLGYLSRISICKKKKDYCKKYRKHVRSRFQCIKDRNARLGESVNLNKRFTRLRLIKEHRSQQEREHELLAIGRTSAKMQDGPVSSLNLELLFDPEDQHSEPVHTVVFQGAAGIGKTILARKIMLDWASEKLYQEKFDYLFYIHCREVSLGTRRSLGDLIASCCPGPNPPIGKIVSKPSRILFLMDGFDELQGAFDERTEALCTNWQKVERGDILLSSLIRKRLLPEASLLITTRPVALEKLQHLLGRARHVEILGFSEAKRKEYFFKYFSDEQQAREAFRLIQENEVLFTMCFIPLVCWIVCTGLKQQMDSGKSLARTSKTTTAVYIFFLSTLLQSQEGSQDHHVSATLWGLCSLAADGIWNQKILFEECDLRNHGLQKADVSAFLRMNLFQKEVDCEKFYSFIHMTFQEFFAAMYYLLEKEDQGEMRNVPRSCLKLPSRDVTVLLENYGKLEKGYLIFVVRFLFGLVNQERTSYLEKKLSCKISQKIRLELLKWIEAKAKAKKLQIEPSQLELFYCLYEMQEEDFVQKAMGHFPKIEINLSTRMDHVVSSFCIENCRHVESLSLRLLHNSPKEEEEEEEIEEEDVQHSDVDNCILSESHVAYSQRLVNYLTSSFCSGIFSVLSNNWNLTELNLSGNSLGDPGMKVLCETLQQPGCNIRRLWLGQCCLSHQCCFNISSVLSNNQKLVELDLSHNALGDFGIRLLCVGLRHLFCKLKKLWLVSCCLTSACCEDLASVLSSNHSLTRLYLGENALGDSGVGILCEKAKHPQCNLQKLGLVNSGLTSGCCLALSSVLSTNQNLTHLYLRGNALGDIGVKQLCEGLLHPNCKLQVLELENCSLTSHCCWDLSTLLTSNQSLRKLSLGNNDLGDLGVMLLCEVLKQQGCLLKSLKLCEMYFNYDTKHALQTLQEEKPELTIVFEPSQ

These are yes or no findings as the source states them, for the method shown. Binding seen in cells or lysates may run through a third protein. A result given as binding can be weak or reduced; the word gives no strength.

The target of test [1] is HA-tagged IKKβ (porcine) (pig (amplified from PAMs)) (UniProt A5A757). Put plainly: co-IP; HEK293T co-transfected; lysates immunoprecipitated with an anti-HA antibody plus Protein A/G beads, Western blot. In general terms: A western blot detects proteins with antibodies after separation by electrophoresis.
Test [2] concerns the target Flag-tagged NLRP3 (porcine) (pig (amplified from PAMs)) (UniProt G9M4L5).

Regarding “Flag-tagged NLRP3 (porcine) (from UniProt G9M4L5)”, in test [1], the binding result is “binds”. As for “HA-tagged IKKβ (porcine) (from UniProt A5A757) (enzyme)”, the binding entry in test [2] is recorded as “binds”.
